The text below walks through data of PMC12137002.

By UniProt entry, the sequences of proteins in these tests, tags left out.
UniProt O55143: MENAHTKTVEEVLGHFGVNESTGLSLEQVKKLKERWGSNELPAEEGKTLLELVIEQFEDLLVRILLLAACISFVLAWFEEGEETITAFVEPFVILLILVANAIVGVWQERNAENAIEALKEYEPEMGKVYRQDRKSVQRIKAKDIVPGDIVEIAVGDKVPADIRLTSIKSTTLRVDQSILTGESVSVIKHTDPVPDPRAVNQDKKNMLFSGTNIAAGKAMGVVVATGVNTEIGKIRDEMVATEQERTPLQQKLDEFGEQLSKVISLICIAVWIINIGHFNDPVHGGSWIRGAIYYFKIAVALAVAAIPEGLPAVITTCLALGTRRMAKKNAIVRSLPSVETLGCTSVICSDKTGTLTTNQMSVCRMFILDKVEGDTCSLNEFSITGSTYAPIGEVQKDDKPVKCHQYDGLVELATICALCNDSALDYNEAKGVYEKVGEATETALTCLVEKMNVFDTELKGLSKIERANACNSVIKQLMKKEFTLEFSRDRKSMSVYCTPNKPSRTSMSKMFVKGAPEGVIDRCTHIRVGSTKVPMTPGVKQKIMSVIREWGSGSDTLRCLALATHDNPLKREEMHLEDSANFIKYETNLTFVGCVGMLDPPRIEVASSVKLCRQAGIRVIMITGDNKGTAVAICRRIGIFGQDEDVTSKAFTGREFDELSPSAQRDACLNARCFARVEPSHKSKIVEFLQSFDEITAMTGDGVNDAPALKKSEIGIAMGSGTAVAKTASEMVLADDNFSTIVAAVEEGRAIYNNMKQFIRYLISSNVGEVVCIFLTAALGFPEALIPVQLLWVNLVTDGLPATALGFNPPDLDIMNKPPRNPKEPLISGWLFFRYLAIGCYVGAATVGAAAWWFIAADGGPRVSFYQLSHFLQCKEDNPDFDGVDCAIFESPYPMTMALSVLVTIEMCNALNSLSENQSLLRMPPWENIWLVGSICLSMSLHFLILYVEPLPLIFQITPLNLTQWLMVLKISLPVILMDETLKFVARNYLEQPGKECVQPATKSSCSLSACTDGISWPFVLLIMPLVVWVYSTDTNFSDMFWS

Test [1] addresses flag-tagged mouse Atp2a2b (SERCA2b) (mouse) (UniProt O55143). The experiment in a line: co-IP; FLAG-SERCA2b from adipocyte lysate solubilised with 1% n-dodecyl β-D-maltoside, held on anti-FLAG M2 magnetic beads (2 h, 4°C), washed in 50 mM HEPES-NaOH pH 7.0, 100 mM NaCl, 20% glycerol, 100 μM CaCl2, 0.05% LMNG, eluted with 3X FLAG peptide; blot with a polyclonal antibody for C4orf3.

Test [2] addresses SERCA2b (mouse (endogenous in inguinal WAT-derived adipocytes)) (UniProt O55143). The experiment in a line: cross-linking; 15 μg beige adipocyte microsomes, 1 mM BMH, 40 mM MOPS pH 7.0, 3.2 mM MgCl2, 75 mM KCl, 1 mM EGTA, 1 h at 25°C; compounds added to set the catalytic states of SERCA2b (E2, E2-ATP, E1Ca2, E1PCa2, E2V, E1·AlFx·ADP, E2·AlF4) and free Ca2+ 0-100 μM; blot, band at ~120 kDa.

Positions count from the first letter of the chain named. Numbers in names are those of the source. Results are given in words; binding and its absence hold for the method and conditions named. In cells and extracts the contact can be indirect. Some binding calls cover weakened binding; strength is not graded here.

B1: endogenous C4orf3/ALN protein (protein, UniProt Q99M08 1-65)
chain: MEVSQAASGTDGVRERRGSFEAGRRNQDEAPQSGMNGLPKHSYWLDLWLFILFDLALFVFVYLLP
With B1, in test [1], the binding entry is “binds”.

B2: Mouse C4ORF3/ALN^W48C (protein, UniProt Q99M08 1-65)
chain: B1 chain with W48C
Take B2: the binding entry in test [2] was “binds”.
